The list is a part of this screen's results and no random one: it is rich in T/C values a quarter to a half above the control, in often repeated tests (any T/C) and in doses without a T/C. Other doses and runs of a compound stand elsewhere. T/C: endpoint of the treated group in % of that of the vehicle group. Some entries give survivors of the animals treated and no T/C: the source holds a T/C of zero for them, seemingly a mark for toxic or unscored doses. Some survivor counts are full or nearly so, which does not show that the dose was tolerated: the source hardly ever lists a survival T/C far under the control, and the zero likely stands for such cases as well. Counts of survivors are from the toxicity check (mostly the fifth day) where no day follows; animals may have died later. Schedules are NCI's codes, read here as Q, the interval in days (D) or hours (H), X, the number of doses. Some schedule codes hold Z or #, which are not explained here. Where survival is the endpoint, the PubChem record calls one and a half times the control and up active, and a quarter to a half above the control has no call in these data; cut-offs in other NCI protocols can differ. Some doses were run more than once; their values stand side by side, smallest first. Some T/C values carry the count of animals alive at the toxicity check (mostly the fifth day); where none is given, no animal had died by that day.
Tested on: L1210 leukemia ip in BDF1 mice, survival T/C
Assay: NCI In Vivo Anticancer Drug Screen. Data for tumor model L1210 Leukemia (intraperitoneal) in B6D2F1 (BDF1) mice
Conditions: higher T/C = longer survival
[1] = T/C endpoint: mean survival time, dose: 637.0 mg/kg/injection, schedule: Q01DX001 (ip), vehicle: saline with Tween-80
[2] = T/C endpoint: mean survival time, dose: 800.0 mg/kg/injection, schedule: Q## X024 (ip), vehicle: other
[3] = T/C endpoint: mean survival time, dose: 956.0 mg/kg/injection, schedule: Q01DX001 (ip), vehicle: saline with Tween-80

## NC(=S)N/N=C/c1ccc(O)cn1
T/C endpoint: mean survival time, dose: 200.0 mg/kg/injection, schedule: Q01DX009 (ip), vehicle: saline with Tween-80
  survivor count: 10 of 10
T/C endpoint: mean survival time, dose: 200.0 mg/kg/injection, schedule: Q01DX009 (oral), vehicle: other
  T/C: 142 % of control
T/C endpoint: mean survival time, dose: 200.0 mg/kg/injection, schedule: Q01DX015 (ip), vehicle: carboxymethylcellulose (CMC)
  T/C: 126 % of control [5 of 6 alive]
T/C endpoint: mean survival time, dose: 200.0 mg/kg/injection, schedule: Q03HX024 (ip), vehicle: alkali diluted with saline
  survivor count: 6 of 10
T/C endpoint: mean survival time, dose: 200.0 mg/kg/injection, schedule: Q## X003 (ip), vehicle: other
  T/C: 140 % of control
T/C endpoint: mean survival time, dose: 300.0 mg/kg/injection, schedule: Q01DX001 (ip), vehicle: other
  T/C: 127 % of control
T/C endpoint: mean survival time, dose: 300.0 mg/kg/injection, schedule: Q01DX001 (ip), vehicle: saline, evaluated on day 7
  T/C: 137 % of control
T/C endpoint: mean survival time, dose: 300.0 mg/kg/injection, schedule: Q01DX001 (ip), vehicle: saline, evaluated on day 63
  T/C: 138 % of control
T/C endpoint: mean survival time, dose: 300.0 mg/kg/injection, schedule: Q01DX005 (ip), vehicle: alkali diluted with saline
  T/C: 140 % of control
T/C endpoint: mean survival time, dose: 300.0 mg/kg/injection, schedule: Q01DX005 (ip), vehicle: other, evaluated on day 30
  T/C: 172, 206, 216 % of control
T/C endpoint: mean survival time, dose: 300.0 mg/kg/injection, schedule: Q01DX005 (ip), vehicle: other, evaluated on day 40
  T/C: 280 % of control [9 of 10 alive]
T/C endpoint: mean survival time, dose: 300.0 mg/kg/injection, schedule: Q01DX005 (iv), vehicle: other
  survivor count: 0 of 5
T/C endpoint: mean survival time, dose: 300.0 mg/kg/injection, schedule: Q01DX009 (ip), vehicle: alkali diluted with saline
  T/C: 147 % of control
T/C endpoint: mean survival time, dose: 300.0 mg/kg/injection, schedule: Q01DX009 (ip), vehicle: other
  T/C: 140 % of control
T/C endpoint: mean survival time, dose: 300.0 mg/kg/injection, schedule: Q03HX008 (ip), vehicle: alkali diluted with saline
  survivor count: 6 of 10
T/C endpoint: mean survival time, dose: 300.0 mg/kg/injection, schedule: Q03HX016 (ip), vehicle: alkali diluted with saline
  survivor count: 4 of 10
T/C endpoint: mean survival time, dose: 300.0 mg/kg/injection, schedule: Q## X002 (ip), vehicle: other
  T/C: 140 % of control
T/C endpoint: mean survival time, dose: 400.0 mg/kg/injection, schedule: Q04DX003 (ip), vehicle: alkali diluted with saline
  T/C: 135 % of control
T/C endpoint: mean survival time, dose: 500.0 mg/kg/injection, schedule: Q01DX001 (ip), vehicle: saline
  T/C: 144 % of control
T/C endpoint: mean survival time, dose: 600.0 mg/kg/injection, schedule: Q01DX001 (ip), vehicle: other
  T/C: 133 % of control
T/C endpoint: mean survival time, dose: 600.0 mg/kg/injection, schedule: Q01DX001 (ip), vehicle: saline, evaluated on day 7
  T/C: 140 % of control
T/C endpoint: mean survival time, dose: 600.0 mg/kg/injection, schedule: Q01DX001 (ip), vehicle: saline, evaluated on day 63
  T/C: 142 % of control
T/C endpoint: mean survival time, dose: 600.0 mg/kg/injection, schedule: Q01DX005 (ip), vehicle: alkali diluted with saline
  survivor count: 3 of 10
T/C endpoint: mean survival time, dose: 600.0 mg/kg/injection, schedule: Q01DX009 (ip), vehicle: alkali diluted with saline
  survivor count: 3 of 10
T/C endpoint: mean survival time, dose: 600.0 mg/kg/injection, schedule: Q## X002 (ip), vehicle: other
  T/C: 143 % of control
[1]
  T/C: 128 % of control
  survivor count: 10 of 10
T/C endpoint: mean survival time, dose: 800.0 mg/kg/injection, schedule: Q03HX024 (ip), vehicle: clinical formulation
  survivor count: 4 of 10
T/C endpoint: mean survival time, dose: 800.0 mg/kg/injection, schedule: Q03HX024 (ip), vehicle: other
  survivor count: 7 of 10
T/C endpoint: mean survival time, dose: 800.0 mg/kg/injection, schedule: Q04DX003 (ip), vehicle: alkali diluted with saline
  survivor count: 5 of 10
T/C endpoint: mean survival time, dose: 800.0 mg/kg/injection, schedule: Q## X016 (oral), vehicle: other
  T/C: 137 % of control
[2]
  T/C: 141 % of control [9 of 10 alive]
  survivor count: 6 of 10
[3]
  T/C: 140 % of control
  survivor count: 10 of 10
T/C endpoint: mean survival time, dose: 1200.0 mg/kg/injection, schedule: Q01DX001 (ip), vehicle: alkali diluted with saline
  survivor count: 0 of 10
T/C endpoint: mean survival time, dose: 1200.0 mg/kg/injection, schedule: Q08DX002 (ip), vehicle: alkali diluted with saline
  survivor count: 0 of 10
T/C endpoint: mean survival time, dose: 1600.0 mg/kg/injection, schedule: Q04DX003 (ip), vehicle: alkali diluted with saline
  survivor count: 0 of 10
T/C endpoint: mean survival time, dose: 1600.0 mg/kg/injection, schedule: Q## X003 (ip), vehicle: other
  T/C: 126 % of control [9 of 10 alive]
T/C endpoint: mean survival time, dose: 2400.0 mg/kg/injection, schedule: Q01DX001 (ip), vehicle: alkali diluted with saline
  survivor count: 0 of 10
T/C endpoint: mean survival time, dose: 2400.0 mg/kg/injection, schedule: Q08DX002 (ip), vehicle: alkali diluted with saline
  survivor count: 0 of 10
T/C endpoint: mean survival time, dose: 2400.0 mg/kg/injection, schedule: Q## X008 (ip), vehicle: other
  T/C: 141 % of control [8 of 9 alive]
T/C endpoint: median survival time, dose: 10.0 mg/kg/injection, schedule: Q03HX024 (ip), vehicle: other
  T/C: 140 % of control
T/C endpoint: median survival time, dose: 10.0 mg/kg/injection, schedule: Q03HX024 (sc), vehicle: other
  T/C: 130 % of control
T/C endpoint: median survival time, dose: 50.0 mg/kg/injection, schedule: Q01DX009 (sc), vehicle: other
  T/C: 140 % of control
T/C endpoint: median survival time, dose: 75.0 mg/kg/injection, schedule: Q01DX009 (ip), vehicle: water, evaluated on day 5
  T/C: 142 % of control
T/C endpoint: median survival time, dose: 75.0 mg/kg/injection, schedule: Q01DX009 (ip), vehicle: water, evaluated on day 22
  T/C: 144 % of control
T/C endpoint: median survival time, dose: 200.0 mg/kg/injection, schedule: Q01DX009 (ip), vehicle: other
  T/C: 130 % of control
T/C endpoint: median survival time, dose: 200.0 mg/kg/injection, schedule: Q01DX009 (sc), vehicle: other
  T/C: 140 % of control
T/C endpoint: median survival time, dose: 200.0 mg/kg/injection, schedule: Q04DX003 (sc), vehicle: other
  T/C: 125 % of control
T/C endpoint: median survival time, dose: 300.0 mg/kg/injection, schedule: Q01DX009 (ip), vehicle: other
  T/C: 127 % of control
T/C endpoint: median survival time, dose: 400.0 mg/kg/injection, schedule: Q01DX009 (ip), vehicle: other
  survivor count: 6 of 8
T/C endpoint: median survival time, dose: 400.0 mg/kg/injection, schedule: Q01DX009 (sc), vehicle: other
  survivor count: 8 of 8
T/C endpoint: median survival time, dose: 500.0 mg/kg/injection, schedule: Q01DX001 (ip), vehicle: saline
  T/C: 145 % of control
T/C endpoint: median survival time, dose: 800.0 mg/kg/injection, schedule: Q04DX003 (ip), vehicle: other
  survivor count: 0 of 8
T/C endpoint: median survival time, dose: 800.0 mg/kg/injection, schedule: Q04DX003 (sc), vehicle: other
  survivor count: 3 of 8
